According to PubChem BioAssay AID445 (National Center for Advancing Translational Sciences (NCATS), 2006):
The list shows a part of the results. Shown are side measurements of this screen, not its main read-out; they come without a call. Compounds called inactive in the main read-out are mostly missing here. Words in brackets tell the shape of the fitted curve; partial curves, single points and poor fits give uncertain potencies.

Test: IkB Signaling
Conditions: ABC-DLBCL IkBa-CBG/CBR dual luciferase ratio (green luciferase fused to IkBa over red control in OCI-Ly3 lymphoma cells), 4 h; measured here: control luc red channel unless noted
Procedure, shortened: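 Curves were fitted separately to fusion (green), unfused (red) and ratio luminescence, then classed by r2, magnitude and activity. Cells: OCI-Ly3, 4 h compound plus doxycycline at 37C; 10 uM MG-132 defined full response.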

**Q.** For `CCOc1ccc(Cn2c(CNS(=O)(=O)c3c(C)cc(C)cc3C)nc3cccnc32)cc1`, which AC50 is on record?
**A.** 39.8 µM [falling, single point]

**Q.** Which AC50 does the source give for `O=C(CSCc1nc2ccccc2[nH]1)N1CCN(c2ccc(F)cc2)CC1` here?
**A.** 1.26 µM [falling, full curve]

**Q.** Which AC50 does the source give for `CC(=O)c1ccc(NC(=O)c2ccc(NC(=O)CCS(=O)(=O)c3cccs3)cc2)cc1` here?
**A.** 10 µM [falling, partial curve]

**Q.** With `Cc1cccc(Cn2cc(S(=O)(=O)c3ccc(Cl)cc3)c(=O)c3cc4c(cc32)OCO4)c1` as the molecule, how does the AC50 read?
**A.** 1 µM [falling, single point]

**Q.** With `Cc1cccc(OCCSc2nc3ccc(NC(=O)c4cccs4)cc3s2)c1` as the molecule, how does the AC50 read?
**A.** 3.98 µM [falling, full curve]

**Q.** Which AC50 does the source give for `O=C(CCCc1cccs1)Nc1nc2c(s1)CCCC2` here?
**A.** 39.8 µM [falling, single point]

**Q.** For `Cc1ccc2nc(COc3cccc(NC(=O)COc4ccccc4F)c3)cc(=O)n2c1`, which AC50 is on record?
**A.** 0.0794 µM [falling, full curve]

**Q.** Which AC50 does the source give for `Cc1ccc(S(=O)(=O)N2CCN(C3CC(=O)N(Cc4ccccc4)C3=O)CC2)cc1C` (stereo not drawn) here?
**A.** 20 µM [falling, partial curve]

**Q.** Which AC50 does the source give for `Cc1ccc(C)c(N2C(=O)CN=C2Nc2ccccc2Cl)c1` here?
**A.** 12.6 µM [falling, partial curve]

**Q.** With `Cc1ccc(-n2ncc(C(=O)N3CCN(c4ccccn4)CC3)c2C2CCN(C(=O)OC(C)(C)C)CC2)cc1` as the molecule, how does the AC50 read?
**A.** 39.8 µM [falling, single point]

**Q.** For `N#Cc1nc(COc2ccc(-c3ccccc3)cc2)oc1NCCCN1CCOCC1`, which AC50 is on record?
**A.** 12.6 µM [falling, partial curve]

**Q.** Which AC50 does the source give for `Cc1ccc(NC(=O)c2cc(S(=O)(=O)N3CCCc4ccccc43)ccc2F)cc1F` here?
**A.** 20 µM [falling, partial curve]

**Q.** With `Cc1nc(-c2ccc(Cl)cc2)sc1CCNC(=O)c1ccc(C(F)(F)F)cc1` as the molecule, how does the AC50 read?
**A.** 0.0794 µM [falling, full curve, poor fit]

**Q.** For `CCC(C(=O)Nc1ccccc1C(=O)OC)n1nc(C)c2c(C)n(-c3ccc(C)cc3)nc2c1=O` (stereo not drawn), which AC50 is on record?
**A.** 25.1 µM [falling, partial curve]

**Q.** For `COc1ccccc1C(=O)OCc1cc(=O)n2nc(C3CC3)sc2n1`, which AC50 is on record?
**A.** 15.8 µM [falling, partial curve]

**Q.** For `COc1cccc(OCCSc2nc3ccccc3n2CC(=O)N2CCCCC2)c1`, which AC50 is on record?
**A.** 15.8 µM [falling, partial curve]

**Q.** For `COC(=O)c1cc(-c2c(C)nn(-c3ccccc3)c2C)n[nH]1`, which AC50 is on record?
**A.** 6.31 µM [falling, partial curve]

**Q.** With `COc1ccc(OC)c(NC(=O)CSCc2cnn(-c3ccccc3)c2-n2cccc2)c1` as the molecule, how does the AC50 read?
**A.** 15.8 µM [falling, partial curve]
